Drawing on publication PMC5326618, this text covers binding for 3 molecules.

Chains of the proteins cited; added tags and fusions are not shown.
UniProt Q92993: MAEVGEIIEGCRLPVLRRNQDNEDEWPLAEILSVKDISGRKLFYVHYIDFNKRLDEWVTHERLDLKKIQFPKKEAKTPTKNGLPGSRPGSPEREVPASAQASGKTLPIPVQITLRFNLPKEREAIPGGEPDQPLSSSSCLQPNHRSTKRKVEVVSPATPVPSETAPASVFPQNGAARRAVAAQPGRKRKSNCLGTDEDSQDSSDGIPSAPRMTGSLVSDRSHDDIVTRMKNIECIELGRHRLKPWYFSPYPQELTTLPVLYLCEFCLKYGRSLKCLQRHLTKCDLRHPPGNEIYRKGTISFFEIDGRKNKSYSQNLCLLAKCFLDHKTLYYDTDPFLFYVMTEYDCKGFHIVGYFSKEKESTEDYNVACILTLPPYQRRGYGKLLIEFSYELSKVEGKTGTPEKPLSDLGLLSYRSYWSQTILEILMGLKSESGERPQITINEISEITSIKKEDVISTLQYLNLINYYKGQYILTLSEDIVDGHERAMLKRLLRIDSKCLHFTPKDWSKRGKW
UniProt Q13547: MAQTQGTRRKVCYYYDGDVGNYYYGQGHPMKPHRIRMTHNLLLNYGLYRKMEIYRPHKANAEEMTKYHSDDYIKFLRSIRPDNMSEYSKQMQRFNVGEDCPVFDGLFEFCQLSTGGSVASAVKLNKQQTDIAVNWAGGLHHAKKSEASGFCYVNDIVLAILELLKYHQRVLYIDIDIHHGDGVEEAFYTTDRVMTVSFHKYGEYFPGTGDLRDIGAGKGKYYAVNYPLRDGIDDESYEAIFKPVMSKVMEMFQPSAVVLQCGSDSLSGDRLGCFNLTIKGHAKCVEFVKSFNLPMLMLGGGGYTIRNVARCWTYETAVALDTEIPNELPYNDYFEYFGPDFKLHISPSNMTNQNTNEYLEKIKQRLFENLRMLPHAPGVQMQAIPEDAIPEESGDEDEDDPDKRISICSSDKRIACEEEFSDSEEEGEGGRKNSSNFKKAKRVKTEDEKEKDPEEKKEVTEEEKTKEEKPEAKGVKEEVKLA

Experiment [1] addresses T1, Flag-UHRF2 (full-length UHRF2) (UniProt Q96PU4).
T1 sequence: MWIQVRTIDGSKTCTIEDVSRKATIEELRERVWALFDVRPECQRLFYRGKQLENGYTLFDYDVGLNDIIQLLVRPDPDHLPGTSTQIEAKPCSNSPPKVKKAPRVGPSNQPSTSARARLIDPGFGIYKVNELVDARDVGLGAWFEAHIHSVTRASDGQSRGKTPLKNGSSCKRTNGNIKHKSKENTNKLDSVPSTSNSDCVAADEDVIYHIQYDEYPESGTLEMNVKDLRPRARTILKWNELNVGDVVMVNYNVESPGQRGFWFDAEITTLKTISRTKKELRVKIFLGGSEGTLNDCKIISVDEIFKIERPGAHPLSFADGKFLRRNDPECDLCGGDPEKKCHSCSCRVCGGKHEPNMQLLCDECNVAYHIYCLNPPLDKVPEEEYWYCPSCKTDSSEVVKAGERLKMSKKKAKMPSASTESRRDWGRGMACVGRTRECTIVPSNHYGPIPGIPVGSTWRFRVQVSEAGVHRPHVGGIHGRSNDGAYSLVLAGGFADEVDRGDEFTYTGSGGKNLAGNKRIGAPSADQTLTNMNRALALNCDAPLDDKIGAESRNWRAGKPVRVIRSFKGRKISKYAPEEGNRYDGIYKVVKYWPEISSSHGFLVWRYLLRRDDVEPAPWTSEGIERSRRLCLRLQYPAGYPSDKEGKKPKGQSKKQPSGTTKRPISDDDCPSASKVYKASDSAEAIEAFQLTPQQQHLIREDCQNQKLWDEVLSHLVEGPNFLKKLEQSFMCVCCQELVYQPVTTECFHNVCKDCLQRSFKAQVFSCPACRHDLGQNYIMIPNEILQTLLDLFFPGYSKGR
Kind of experiment: co-IP; HEK293 cells 48 h after transfection, NP40 lysis buffer; whole cell extracts immunoprecipitated overnight at 4°C with anti-Flag antibodies, Western blot. (In western blotting, separated proteins are transferred to a membrane and probed.)

The target of experiment [2] is TIP60 (human (endogenous in HEK293)) (UniProt Q92993). The experiment is described as follows: co-IP; reciprocal: HEK293 cells transfected with plasmids as shown, NP40 lysis buffer; lysates immunoprecipitated overnight at 4°C with anti-TIP60 antibodies, Western blot.
The target in experiment [3] is HDAC1 (human (endogenous in HEK293)) (UniProt Q13547). The experiment is described as follows: co-IP; reciprocal: HEK293 cells transfected with the indicated plasmids, NP40 lysis buffer; lysates subjected to HDAC1 immunoprecipitation overnight at 4°C, Western blot.

These are yes or no findings as the source states them, for the method shown. Binding seen in cells or lysates may run through a third protein. Some results given as binding are weak or reduced against the parent protein; the word gives no strength. Where a sequence is shown, tags or fusion partners need not be part of it.

For the molecule HDAC1 (from UniProt Q13547 1-482), in experiment [1], the binding result was “binds”.

TIP60 (from UniProt Q92993 1-513): the binding entry in experiment [1] is listed as “binds”.

B1: Flag-UHRF2 (full-length UHRF2) (protein, UniProt Q96PU4 1-802)
chain: MWIQVRTIDGSKTCTIEDVSRKATIEELRERVWALFDVRPECQRLFYRGKQLENGYTLFDYDVGLNDIIQLLVRPDPDHLPGTSTQIEAKPCSNSPPKVKKAPRVGPSNQPSTSARARLIDPGFGIYKVNELVDARDVGLGAWFEAHIHSVTRASDGQSRGKTPLKNGSSCKRTNGNIKHKSKENTNKLDSVPSTSNSDCVAADEDVIYHIQYDEYPESGTLEMNVKDLRPRARTILKWNELNVGDVVMVNYNVESPGQRGFWFDAEITTLKTISRTKKELRVKIFLGGSEGTLNDCKIISVDEIFKIERPGAHPLSFADGKFLRRNDPECDLCGGDPEKKCHSCSCRVCGGKHEPNMQLLCDECNVAYHIYCLNPPLDKVPEEEYWYCPSCKTDSSEVVKAGERLKMSKKKAKMPSASTESRRDWGRGMACVGRTRECTIVPSNHYGPIPGIPVGSTWRFRVQVSEAGVHRPHVGGIHGRSNDGAYSLVLAGGFADEVDRGDEFTYTGSGGKNLAGNKRIGAPSADQTLTNMNRALALNCDAPLDDKIGAESRNWRAGKPVRVIRSFKGRKISKYAPEEGNRYDGIYKVVKYWPEISSSHGFLVWRYLLRRDDVEPAPWTSEGIERSRRLCLRLQYPAGYPSDKEGKKPKGQSKKQPSGTTKRPISDDDCPSASKVYKASDSAEAIEAFQLTPQQQHLIREDCQNQKLWDEVLSHLVEGPNFLKKLEQSFMCVCCQELVYQPVTTECFHNVCKDCLQRSFKAQVFSCPACRHDLGQNYIMIPNEILQTLLDLFFPGYSKGR
For the molecule B1, the binding result in experiment [2] and in experiment [3] was “binds” throughout.
